At least one structure is not confirmed: it was looked up by name or label, or the drawing left a doubt.
Tested on: UCD patients
Assay: Example 3: TEAEs, serious and non-serious adverse events
Type: in vivo
Description: Sixteen newborn infants aged 0 to 27 days, and 10 infants and toddlers aged 28 days to 23 months received RAVICTI Oral Liquid administered just prior to breastfeeding or intake of formula or food. The recommended dosing regimen was 3-6 times per day depending on feeding schedule.
Number of Subjects with Treatment-Emergent Adverse Events (TEAEs), Serious TEAEs, Deaths, and Discontinuations Due to TEAEs
An adverse event (AE) is any untoward medical occurrence, whether or not the event is considered related to the study drug. A serious AE is any AE that: results in death; is life threatening; requires hospitalization or prolongation of existing hospitalization; results in disability/incapacity; is a congenital anomaly/birth defect; is an important medical event. TEAEs are defined as AEs with an onset date on or after the first dose of study medication until study discontinuation. The Investigator assessed the causal relationship of each TEAE to the study drug as not related, possibly related, or probably related. From the first dose of study treatment through 30 days after the final dose (mean [SD] duration of treatment was 9.13 [6.838] months).

[1] = Non-serious adverse events, Age 0 to <2 Months

O=C(CCCc1ccccc1)OCC(COC(=O)CCCc1ccccc1)OC(=O)CCCc1ccccc1 [RAVICTI, benzenebutanoic acid, 1′,1″-(1,2,3-propanetriyl) ester]
0/10 (0.00%): Serious AE Atelectasis: Subjects Affected/Exposed (Age 2 Months to <2 Years) | Serious AE Bacteraemia: Subjects Affected/Exposed (Age 2 Months to <2 Years) | Serious AE Cellulitis: Subjects Affected/Exposed (Age 2 Months to <2 Years) | Serious AE Dehydration: Subjects Affected/Exposed (Age 2 Months to <2 Years) | Serious AE Device related infection: Subjects Affected/Exposed (Age 2 Months to <2 Years) | Serious AE Feeding Disorder: Subjects Affected/Exposed (Age 2 Months to <2 Years) | Serious AE Lethargy: Subjects Affected/Exposed (Age 2 Months to <2 Years) | Serious AE Medical device site infection: Subjects Affected/Exposed (Age 2 Months to <2 Years) | Serious AE Meningitis bacterial: Subjects Affected/Exposed (Age 2 Months to <2 Years) | Serious AE Neutropenia: Subjects Affected/Exposed (Age 2 Months to <2 Years) | Serious AE Tracheitis: Subjects Affected/Exposed (Age 2 Months to <2 Years) | Serious AE Upper respiratory tract infection: Subjects Affected/Exposed (Age 2 Months to <2 Years) | Serious AE Vomiting: Subjects Affected/Exposed (Age 2 Months to <2 Years)
4/16 (25.00%: Nasopharyngitis, Subjects Affected/Exposed [1]
3/16 (18.75%): Anaemia, Subjects Affected/Exposed [1] | Ear infection, Subjects Affected/Exposed [1] | Flatulence, Subjects Affected/Exposed [1]
6/10 (60%): Serious adverse events: Total Subjects Affected/Exposed (Age 2 Months to <2 Years)
0/16 (0.00%): Serious AE Ammonia Increased: Subjects Affected/Exposed (Age 0 to <2 Months) | Serious AE Apnoeic Attack: Subjects Affected/Exposed (Age 0 to <2 Months) | Serious AE Asthma: Subjects Affected/Exposed (Age 0 to <2 Months) | Serious AE Cyanosis: Subjects Affected/Exposed (Age 0 to <2 Months) | Serious AE Gastroenteritis: Subjects Affected/Exposed (Age 0 to <2 Months) | Serious AE Influenza: Subjects Affected/Exposed (Age 0 to <2 Months) | Serious AE Peritonitis: Subjects Affected/Exposed (Age 0 to <2 Months) | Serious AE Pneumatosis intestinalis: Subjects Affected/Exposed (Age 0 to <2 Months) | Serious AE Pyrexia: Subjects Affected/Exposed (Age 0 to <2 Months) | Serious AE Rhinovirus infection: Subjects Affected/Exposed (Age 0 to <2 Months) | Serious AE Status asthmaticus: Subjects Affected/Exposed (Age 0 to <2 Months) | Serious AE Viral upper respiratory tract infection: Subjects Affected/Exposed (Age 0 to <2 Months) | Apnoea, Subjects Affected/Exposed [1] | Conjunctivitis, Subjects Affected/Exposed [1] | Dacryostenosis congenital, Subjects Affected/Exposed [1] | Ear and labyrinth disorders (Excessive cerumen production), Subjects Affected/Exposed [1] | Gross motor delay, Subjects Affected/Exposed [1] | Immune System Disorders (Seasonal allergy), Subjects Affected/Exposed [1] | Nail ridging, Subjects Affected/Exposed [1] | Pharyngitis, Subjects Affected/Exposed [1]
2/10 (20.00%): Serious AE Viral infection: Subjects Affected/Exposed (Age 2 Months to <2 Years)
2/16 (12.50%): Serious AE Vomiting: Subjects Affected/Exposed (Age 0 to <2 Months) | Constipation, Subjects Affected/Exposed [1] | Dehydration, Subjects Affected/Exposed [1] | Hepatic enzyme increased, Subjects Affected/Exposed [1] | Hyperammonaemia, Subjects Affected/Exposed [1] | Metabolic acidosis, Subjects Affected/Exposed [1] | Nasal congestion, Subjects Affected/Exposed [1] | Oral candidiasis, Subjects Affected/Exposed [1] | Oropharyngeal pain, Subjects Affected/Exposed [1]
3/10 (30.00%): Serious AE Hyperammonaemia: Subjects Affected/Exposed (Age 2 Months to <2 Years)
1/10 (10.00%): Serious AE Ammonia Increased: Subjects Affected/Exposed (Age 2 Months to <2 Years) | Serious AE Apnoeic Attack: Subjects Affected/Exposed (Age 2 Months to <2 Years) | Serious AE Asthma: Subjects Affected/Exposed (Age 2 Months to <2 Years) | Serious AE Croup infectious: Subjects Affected/Exposed (Age 2 Months to <2 Years) | Serious AE Cyanosis: Subjects Affected/Exposed (Age 2 Months to <2 Years) | Serious AE Gastroenteritis: Subjects Affected/Exposed (Age 2 Months to <2 Years) | Serious AE Influenza: Subjects Affected/Exposed (Age 2 Months to <2 Years) | Serious AE Peritonitis: Subjects Affected/Exposed (Age 2 Months to <2 Years) | Serious AE Pneumatosis intestinalis: Subjects Affected/Exposed (Age 2 Months to <2 Years) | Serious AE Pyrexia: Subjects Affected/Exposed (Age 2 Months to <2 Years) | Serious AE Status asthmaticus: Subjects Affected/Exposed (Age 2 Months to <2 Years) | Serious AE Urinary tract infection: Subjects Affected/Exposed (Age 2 Months to <2 Years) | Serious AE Viral upper respiratory tract infection: Subjects Affected/Exposed (Age 2 Months to <2 Years)
1/16 (6.25%): Serious AE Atelectasis: Subjects Affected/Exposed (Age 0 to <2 Months) | Serious AE Bacteraemia: Subjects Affected/Exposed (Age 0 to <2 Months) | Serious AE Cellulitis: Subjects Affected/Exposed (Age 0 to <2 Months) | Serious AE Croup infectious: Subjects Affected/Exposed (Age 0 to <2 Months) | Serious AE Dehydration: Subjects Affected/Exposed (Age 0 to <2 Months) | Serious AE Device related infection: Subjects Affected/Exposed (Age 0 to <2 Months) | Serious AE Feeding Disorder: Subjects Affected/Exposed (Age 0 to <2 Months) | Serious AE Lethargy: Subjects Affected/Exposed (Age 0 to <2 Months) | Serious AE Medical device site infection: Subjects Affected/Exposed (Age 0 to <2 Months) | Serious AE Meningitis bacterial: Subjects Affected/Exposed (Age 0 to <2 Months) | Serious AE Neutropenia: Subjects Affected/Exposed (Age 0 to <2 Months) | Serious AE Respiratory syncytial virus infection: Subjects Affected/Exposed (Age 0 to <2 Months) | Serious AE Tracheitis: Subjects Affected/Exposed (Age 0 to <2 Months) | Serious AE Upper respiratory tract infection: Subjects Affected/Exposed (Age 0 to <2 Months) | Serious AE Urinary tract infection: Subjects Affected/Exposed (Age 0 to <2 Months) | Serious AE Viral infection: Subjects Affected/Exposed (Age 0 to <2 Months) | Agitation, Subjects Affected/Exposed [1] | Alanine aminotransferase increased, Subjects Affected/Exposed [1] | Amino acid level decreased, Subjects Affected/Exposed [1] | Amino acid level increased, Subjects Affected/Exposed [1] | Ammonia increased, Subjects Affected/Exposed [1] | Angular cheilitis, Subjects Affected/Exposed [1] | Anion gap increased, Subjects Affected/Exposed [1] | Arthropod bite, Subjects Affected/Exposed [1] | Aspartate aminotransferase increased, Subjects Affected/Exposed [1] | Blood bicarbonate decreased, Subjects Affected/Exposed [1] | Blood urea decreased, Subjects Affected/Exposed [1] | Body height below normal, Subjects Affected/Exposed [1] | Candida infection, Subjects Affected/Exposed [1] | Carbon dioxide decreased, Subjects Affected/Exposed [1] | Cardiac disorders (Tachycardia), Subjects Affected/Exposed [1] | Catheter site rash, Subjects Affected/Exposed [1] | Croup infectious, Subjects Affected/Exposed [1] | Decreased appetite, Subjects Affected/Exposed [1] | Device occlusion, Subjects Affected/Exposed [1] | Drug withdrawal syndrome, Subjects Affected/Exposed [1] | Dysphagia, Subjects Affected/Exposed [1] | Eczema, Subjects Affected/Exposed [1] | Eye discharge, Subjects Affected/Exposed [1] | Feeding disorder of infancy or early childhood, Subjects Affected/Exposed [1] | Gamma-glutamyltransferase increased, Subjects Affected/Exposed [1] | Gastroenteritis, Subjects Affected/Exposed [1] | Gastrointestinal viral infection, Subjects Affected/Exposed [1] | Hepatobiliary disorders (Hepatic calcification), Subjects Affected/Exposed [1] | Hypophagia, Subjects Affected/Exposed [1] | Irritability, Subjects Affected/Exposed [1] | Lethargy, Subjects Affected/Exposed [1] | Leukocytosis, Subjects Affected/Exposed [1] | Lower respiratory tract infection, Subjects Affected/Exposed [1] | Lymphocytosis, Subjects Affected/Exposed [1] | Medical device site haemorrhage, Subjects Affected/Exposed [1] | Microcytic anaemia, Subjects Affected/Exposed [1] | Musculoskeletal and connective tissue Disorders (Torticollis), Subjects Affected/Exposed [1] | Nephrolithiasis, Subjects Affected/Exposed [1] | Neutropenia, Subjects Affected/Exposed [1] | Ocular hyperaemia, Subjects Affected/Exposed [1] | Otitis media acute, Subjects Affected/Exposed [1] | Otitis media, Subjects Affected/Exposed [1]
6/16 (37.50%): Dermatitis diaper, Subjects Affected/Exposed [1] | Gastrooesophageal reflux disease, Subjects Affected/Exposed [1]
4/16 (25.00%): Cough, Subjects Affected/Exposed [1]
11/16 (68.75%): Serious adverse events: Total Subjects Affected/Exposed (Age 0 to <2 Months)
5/16 (31.25%): Serious AE Hyperammonaemia: Subjects Affected/Exposed (Age 0 to <2 Months) | Diarrhoea, Subjects Affected/Exposed [1]

— patent US10668040B2, “Treatment of urea cycle disorders in neonates and infants” (Horizon Therapeutics, LLC, priority 2017, dated 2020)
